Measured values: patent US20150125516

Each sequence was assayed against transferrin receptor (TfR, CD71), native on human cells (Homo sapiens) (UniProt P02786) (assay: binding assay). Conditions: 2'-F pyrimidines; activity at transferrin receptor; listing SEQ 56 has an ambiguous base; protein on the cell surface.

| Sequence | binding result |
| --- | --- |
| UGGUUCUACGAUAAACGGUUAAUGACCAGCUUAUGGCUGGCAGUUCCU [R10-36] | binds |

Same assay, conditions: 2'-F pyrimidines; activity at transferrin receptor; protein on the cell surface

| Sequence | binding result |
| --- | --- |
| UGGUUCUACGAUAAACGGUUAAUGAUCAGCUUAUGGCUGGCAGUUCCU [Waz-like (R10)] | binds |
| GGGUUCUACGAUAAACGGUUAAUGACCAGCUUAUGACUGGCAGUUCCC [Dv3R4-12] | binds more weakly |
| GGGUUCUACGACAAACGGUUAAUGAUCAGCUUAUGGCUGGCAGUUCCC [Dv3R4-20] | binds more weakly |
| GGGUUUUACGAUAAACGGUUAAUGAUCAGCUUAAGACUGGCAAUUCCC [Dv3R4-22] | binds |

Same assay, conditions: 2'-F pyrimidines; relative activity at the transferrin receptor; protein on the cell surface; variant of 36i

| Sequence | binding result |
| --- | --- |
| GGGUACGAUAAACGGUUAAUGACCAGCUUAUGGCUGGCACCC [Waz2] | no binding |
| GGGAACUACGAUAAACGGUUAAUGACCAGCUUAUGGCUGGCAGUUCCC [Waz1] | no binding |
| GGGUACGAUAAACGGUUAAGGACCAGCUUAUGGCUGGCCCCC [Waz3] | no binding |
| GGGUACGACAAACGGUCAAUGACCAGCUUAUGGCUGGCACCC [Waz4 (Table I minimized variant)] | no binding |

Same assay, conditions: 2'-F pyrimidines; relative activity at the transferrin receptor; protein on the cell surface; variant of clone 1036

| Sequence | binding result |
| --- | --- |
| GGGUUAAUGACCAGCUUAUGGCUGGCAGUUCCC [36d] | binds more weakly |
| GGGUGAAUGGUUCUACGAUAAACGGGUUAAUGACCAGCUUAUGGCUGGCAGUUCCCUAUAGCACCC [36e] | no binding |
| GGGUGAAUGGUUCUACGAUAAACGGUUAAUGACCGAAAGGCAGUUCCUAUAGCACCC [36f] | no binding |
| GGGAGUUCUACGAUAAACGGUUAAUGACCAGCUUAUGGCUGGCAGUUCCUCCC [36b] | binds more weakly |
| GGGUGAAUGGUUCUACGAUAAACGGCUUAAUAGUUGCCUAUAGCACCC [36h] | no binding |
| GGGUGAAUCAUAAACGGUUAAUGACCAGCUUAUGGCUGGCAGUUCCUACAGCACCC [36g] | no binding |
| GGGUUCUACGAUAAACGGUUAAUGACCAGCUUAUGGCUGGCAGUUCCC [36i] | binds |
| GGGAGUUCUAGUUAAUGACCAGCUUAUGGCUGGCAGUUCCUCCC [36c] | no binding |
| GGGUGAAUGGUUCUACGAUAAACGGUUAAUGACCAGCUUAUGGCUGGCAGUUCCUAUAGCACCC [36a] | binds |

What follows are sequences tested against transferrin receptor (TfR, CD71), native on human cells (Homo sapiens) (UniProt P02786) (assay: flow cytometry). Conditions: 2'-F pyrimidines; 3' idT (printed as terminal t); 5' thiol; control aptamer, human cell lines; protein on the cell surface; label: AF488.

| Sequence | binding result |
| --- | --- |
| GGCGUAGUGAUUAUGAAUCGUGUGCUAAUACACGCC [cntrl.36 (C36)] | no binding |

Same assay, conditions: 2'-F pyrimidines; Jurkat cells, no staining; protein on the cell surface; label: AF488 primer hybridized

| Sequence | binding result |
| --- | --- |
| GGGAGGUGAAUGGUUCUACGAUAGGGUGAAAUUGCGAGCGUUGCCCAACUUUAUAAGUUGGUGAAUAGCCAUUACAUGCGAGAUGACCACGUAAUUGAAUUAAAUGCCCGCCAUGACCAG [round 5 non-binding clone (SEQ 37)] | no binding |
| GGGAGGUGAAUGGUUCUACGAUAGUAGCUUGAAAUCAGAAAACCGACGAAACAAAAAAUAUGAUUUAGCAAGGAUGACCACGUAAUUGUUACAUGCGAGAUGACCACGUAAUUGAAUUAAAUGCCCGCCAUGACCAG [round 5 non-binding clone (SEQ 36)] | no binding |
| GGGAGGUGAAUGGUUCUACGAUCAGAUGACAAAGCGCAUCAGAAGAAUAAAGUGAGAUAAAGUGUGAGAGGGUUACAUGCGAGAUGACCACGUAAUUGAAUUAAAUGCCCGCCAUGACCAG [round 5 non-binding clone (SEQ 33)] | no binding |
| GGGAGGUGAAUGGUUCUACGAUACAAGUAUCGGUUUUACAAUACAGACGUACAGUGCGAUAGCCAAGCGGAAUUACAUGCGAGAUGACCACGUAAUUGAAUUAAAUGCCCGCCAUGACCAG [round 5 non-binding clone (SEQ 38)] | no binding |
| GGGAGGUGAAUGGUUCUACGAUACGCAUGGCAGGAAGCAUGUUAUCCCCUAAGAAUCCGCAAUCGCUCGUAAUUACAUGCGAGAUGACCACGUAAUUGAAUUAAAUGCCCGCCAUGACCAG [round 5 non-binding clone (SEQ 32)] | no binding |
| GGGAGGUGAAUGGUUCUACGAUUUUGUGACCUGGUCAGGGAGUUGAAGGGUCGCUCUUUUGAAAAGCCUUGGUUACAUGCGAGAUGACCACGUAAUUGAAUUAAAUGCCCGCCAUGACCAG [round 5 non-binding clone (SEQ 34)] | no binding |
| GGGAGGUGAAUGGUUCUACGAUCCGCGAAACUUAAAAAAAACGACAAACGCGUGAGCCGGGCAAGGUAGGUAUUUUACAUGCGAGAUGACCACGUAAUUGAAUUAAAUGCCCGCCAUGACCAG [round 5 non-binding clone (SEQ 35)] | no binding |

Same assay, conditions: 2'-F pyrimidines; Jurkat cells; full activity retained in 25 uM diferric transferrin; protein on the cell surface; label: AF488

| Sequence | binding result |
| --- | --- |
| GGGAGGUGAAUGGUUCUACGAUAAACGGUUAAUGACCAGCUUAUGGCUGGCAGUUCCUAUAGCACCAACUACAUGCGAGAUGACCACGUAAUG [clone 1036] | binds |

Same assay, conditions: 2'-F pyrimidines; Jurkat cells; protein on the cell surface; label: AF488 primer hybridized to 3' constant region

| Sequence | binding result |
| --- | --- |
| GGGAGGUGAAUGGUUCUACGAUCAUUACGGCUACCCCGUGUAACGUCAGCCAAAGUAGACCAAAAGUCAGUUACAUGCGAGAUGACCACGU [clone c11] | binds |

Same assay, conditions: 2'-F pyrimidines; Jurkat cells; total loss of activity; SEQ assigned from described change; protein on the cell surface; label: AF488 primer hybridized to 3' constant region; variant of c2 full length

| Sequence | binding result |
| --- | --- |
| GGGAAGGGACCUCGUUAAAGGACGACUCCCUUACAGAAUUAAAUGCCCGCCAUGACCAG [c2 min.3 (5'-nonamer deleted)] | no binding |
| GGGAGCAUCUCACAGAUCAAUCCAAGGGGAAAUCCCUUACAUGCGAGAUGGAAUUAAAUGCCCGCCAUGACCAG [c2 min.5 (C-rich bulge removed)] | no binding |
| GGGAGCAUCUCACAGAUCAAUCCAAGGGACCUACUCCCUUACAUGCGAGAUGGAAUUAAAUGCCCGCCAUGACCAG [c2 min.4 (C-rich bulge converted to loop)] | no binding |

Same assay, conditions: 2'-F pyrimidines; full activity retained; SEQ assigned from described change; protein on the cell surface; label: AF488 primer hybridized to 3' constant region; variant of c2 full length

| Sequence | binding result |
| --- | --- |
| GGGGACAGAUCAAUUCCGGCUACCCCGUGUAACGUCUAGCCACAUGUCCCCGAAUUAAAUGCCCGCCAUGACCAG [c2 min.9 (c11 stem loop on c2 bulge)] | binds |

Where cells or extracts were used, other partners may take part. A negative result means that nothing was seen under these conditions. For some assays here: The comparison behind a weaker result is the experiment's own reference, which may not be listed here. The exact form of at least one protein or probe is not confirmed.
